Data published in patent publication US20230374088A1.
Results are given in words; binding and its absence hold for the method and conditions named. In cells and extracts the contact can be indirect. Some results given as binding are weak or reduced against the parent protein; the word gives no strength. Tags and fused reporters may be left off the sequences shown.

By UniProt entry, the sequences of proteins in these tests, tags left out. Residues count along the entry.
UniProt P10070, residues 1-594: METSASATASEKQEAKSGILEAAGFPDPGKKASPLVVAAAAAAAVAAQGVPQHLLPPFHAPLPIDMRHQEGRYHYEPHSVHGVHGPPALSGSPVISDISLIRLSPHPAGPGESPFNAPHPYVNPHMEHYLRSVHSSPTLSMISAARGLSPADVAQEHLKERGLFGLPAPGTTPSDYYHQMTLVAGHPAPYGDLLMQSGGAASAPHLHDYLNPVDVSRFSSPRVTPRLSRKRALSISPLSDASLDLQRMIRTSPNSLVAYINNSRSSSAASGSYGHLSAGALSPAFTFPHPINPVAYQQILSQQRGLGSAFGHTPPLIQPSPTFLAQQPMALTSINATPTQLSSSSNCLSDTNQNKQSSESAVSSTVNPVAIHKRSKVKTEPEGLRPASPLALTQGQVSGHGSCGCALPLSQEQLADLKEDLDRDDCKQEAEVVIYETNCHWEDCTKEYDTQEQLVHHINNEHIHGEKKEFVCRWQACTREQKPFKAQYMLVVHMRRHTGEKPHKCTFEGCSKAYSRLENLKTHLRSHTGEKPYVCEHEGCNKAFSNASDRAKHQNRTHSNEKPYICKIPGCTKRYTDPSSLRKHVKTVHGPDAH

Target: c-Myc-Gli2 (1-594aa) (human) (UniProt P10070)
Test: pull-down: co-transfection in Expi293F cells, IP with anti-FLAG magnetic beads, IB anti-c-Myc [panel A]

B1: iii) 362-600 (FLAG-Kif7) (protein, not shown: small tags and cut ends)
chain: ERPPEETASGARGPPRHRSETRIIHRGRRAPGPATASAAAAMRLGAECARYRACTDAAYSLLRELQAEPGLPGAAARKVRDWLCAVEGERSALSSASGPDSGIESASVEDQAAQGAGGRKEDEGAQQLLTLQNQVARLEEENRDFLAALEDAMEQYKLQSDRLREQQEEMVELRLRLELVRPGWGGPRLLNGLPPGSFVPRPHTAPLGGAHAHVLGMVPPACLPGDEVGSEQRGEQVTN
- binding: binds
